Assay results published in the supplement of paper PMC10849652.
Some of the results follow.

Protein sequences, listed by entry. Tags and fused reporters are not part of them. Lines headed by an entry give the natural chain unless they say otherwise; changes in a name come on top.
UniProt Q8IU81: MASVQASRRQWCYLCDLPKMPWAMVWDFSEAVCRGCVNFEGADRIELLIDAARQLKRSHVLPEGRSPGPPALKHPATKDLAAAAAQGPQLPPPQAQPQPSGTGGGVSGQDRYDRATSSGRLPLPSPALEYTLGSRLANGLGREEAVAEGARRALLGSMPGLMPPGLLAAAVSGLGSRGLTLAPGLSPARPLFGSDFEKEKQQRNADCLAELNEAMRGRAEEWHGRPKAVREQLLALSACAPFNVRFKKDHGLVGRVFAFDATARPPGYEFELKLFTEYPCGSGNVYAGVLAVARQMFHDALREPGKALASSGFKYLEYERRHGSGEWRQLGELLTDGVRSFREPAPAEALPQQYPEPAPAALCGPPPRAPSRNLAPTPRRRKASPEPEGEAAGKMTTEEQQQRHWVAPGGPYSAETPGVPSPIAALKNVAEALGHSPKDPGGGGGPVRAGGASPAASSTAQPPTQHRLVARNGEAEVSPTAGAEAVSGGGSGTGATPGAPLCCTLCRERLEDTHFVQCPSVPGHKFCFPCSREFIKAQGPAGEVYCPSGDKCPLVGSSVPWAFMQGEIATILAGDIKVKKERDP
UniProt P01876, whole entry, looked up: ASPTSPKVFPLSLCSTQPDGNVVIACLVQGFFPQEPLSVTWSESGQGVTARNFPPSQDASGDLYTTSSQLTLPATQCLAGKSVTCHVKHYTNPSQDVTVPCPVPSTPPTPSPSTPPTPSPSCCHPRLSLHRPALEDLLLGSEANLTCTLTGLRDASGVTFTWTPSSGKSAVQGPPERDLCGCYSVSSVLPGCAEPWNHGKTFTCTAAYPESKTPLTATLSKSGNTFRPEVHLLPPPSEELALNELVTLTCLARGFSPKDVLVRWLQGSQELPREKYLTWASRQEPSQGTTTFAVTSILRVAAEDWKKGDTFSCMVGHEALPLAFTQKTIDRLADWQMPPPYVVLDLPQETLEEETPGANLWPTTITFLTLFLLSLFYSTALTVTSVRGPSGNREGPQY
UniProt P14316: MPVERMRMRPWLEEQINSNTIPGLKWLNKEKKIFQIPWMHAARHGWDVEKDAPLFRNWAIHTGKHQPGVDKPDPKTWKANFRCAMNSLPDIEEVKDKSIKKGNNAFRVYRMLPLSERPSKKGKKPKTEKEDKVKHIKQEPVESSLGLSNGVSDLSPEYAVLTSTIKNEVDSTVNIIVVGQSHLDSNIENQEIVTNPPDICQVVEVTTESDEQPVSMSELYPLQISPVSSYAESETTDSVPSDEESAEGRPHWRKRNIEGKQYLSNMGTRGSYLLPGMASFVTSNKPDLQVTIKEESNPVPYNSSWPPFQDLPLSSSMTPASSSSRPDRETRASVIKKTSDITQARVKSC
UniProt Q12906, whole entry, looked up: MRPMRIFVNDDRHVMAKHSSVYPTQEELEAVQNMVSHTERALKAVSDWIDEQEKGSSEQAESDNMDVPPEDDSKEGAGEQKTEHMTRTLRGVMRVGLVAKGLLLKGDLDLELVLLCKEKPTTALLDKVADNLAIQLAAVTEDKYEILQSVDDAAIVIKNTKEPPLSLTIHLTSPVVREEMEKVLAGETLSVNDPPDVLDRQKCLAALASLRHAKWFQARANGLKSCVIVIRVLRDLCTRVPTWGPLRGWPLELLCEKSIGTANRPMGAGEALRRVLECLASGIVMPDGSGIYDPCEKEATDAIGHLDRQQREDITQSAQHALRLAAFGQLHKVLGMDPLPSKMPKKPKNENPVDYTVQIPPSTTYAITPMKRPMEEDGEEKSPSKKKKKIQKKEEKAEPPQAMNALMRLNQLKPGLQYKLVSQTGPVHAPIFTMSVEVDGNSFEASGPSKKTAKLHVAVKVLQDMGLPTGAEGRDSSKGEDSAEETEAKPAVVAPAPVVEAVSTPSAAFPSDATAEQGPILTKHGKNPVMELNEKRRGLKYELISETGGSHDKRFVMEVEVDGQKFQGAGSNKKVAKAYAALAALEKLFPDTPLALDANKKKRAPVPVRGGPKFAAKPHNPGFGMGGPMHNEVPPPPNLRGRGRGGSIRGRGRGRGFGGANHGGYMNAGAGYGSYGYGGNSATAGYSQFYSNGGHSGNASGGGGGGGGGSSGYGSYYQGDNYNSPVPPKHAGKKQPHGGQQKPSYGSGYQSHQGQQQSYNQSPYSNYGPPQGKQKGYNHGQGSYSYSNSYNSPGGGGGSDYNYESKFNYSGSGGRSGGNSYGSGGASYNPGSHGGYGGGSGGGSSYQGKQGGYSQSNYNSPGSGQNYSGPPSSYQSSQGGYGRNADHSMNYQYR
UniProt Q9BUE6: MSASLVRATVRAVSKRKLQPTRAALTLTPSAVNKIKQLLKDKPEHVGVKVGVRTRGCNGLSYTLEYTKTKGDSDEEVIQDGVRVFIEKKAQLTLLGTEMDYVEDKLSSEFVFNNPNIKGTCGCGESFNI
UniProt Q08334: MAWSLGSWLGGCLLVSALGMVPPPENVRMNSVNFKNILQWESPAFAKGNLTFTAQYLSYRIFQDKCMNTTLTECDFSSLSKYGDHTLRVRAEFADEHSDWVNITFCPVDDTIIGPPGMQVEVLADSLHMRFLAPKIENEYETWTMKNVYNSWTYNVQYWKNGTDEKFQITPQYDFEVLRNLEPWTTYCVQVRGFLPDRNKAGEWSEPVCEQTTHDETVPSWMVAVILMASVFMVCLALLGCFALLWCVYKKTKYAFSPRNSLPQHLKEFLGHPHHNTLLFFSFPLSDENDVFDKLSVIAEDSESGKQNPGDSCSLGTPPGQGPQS
UniProt Q96F46, whole entry, looked up: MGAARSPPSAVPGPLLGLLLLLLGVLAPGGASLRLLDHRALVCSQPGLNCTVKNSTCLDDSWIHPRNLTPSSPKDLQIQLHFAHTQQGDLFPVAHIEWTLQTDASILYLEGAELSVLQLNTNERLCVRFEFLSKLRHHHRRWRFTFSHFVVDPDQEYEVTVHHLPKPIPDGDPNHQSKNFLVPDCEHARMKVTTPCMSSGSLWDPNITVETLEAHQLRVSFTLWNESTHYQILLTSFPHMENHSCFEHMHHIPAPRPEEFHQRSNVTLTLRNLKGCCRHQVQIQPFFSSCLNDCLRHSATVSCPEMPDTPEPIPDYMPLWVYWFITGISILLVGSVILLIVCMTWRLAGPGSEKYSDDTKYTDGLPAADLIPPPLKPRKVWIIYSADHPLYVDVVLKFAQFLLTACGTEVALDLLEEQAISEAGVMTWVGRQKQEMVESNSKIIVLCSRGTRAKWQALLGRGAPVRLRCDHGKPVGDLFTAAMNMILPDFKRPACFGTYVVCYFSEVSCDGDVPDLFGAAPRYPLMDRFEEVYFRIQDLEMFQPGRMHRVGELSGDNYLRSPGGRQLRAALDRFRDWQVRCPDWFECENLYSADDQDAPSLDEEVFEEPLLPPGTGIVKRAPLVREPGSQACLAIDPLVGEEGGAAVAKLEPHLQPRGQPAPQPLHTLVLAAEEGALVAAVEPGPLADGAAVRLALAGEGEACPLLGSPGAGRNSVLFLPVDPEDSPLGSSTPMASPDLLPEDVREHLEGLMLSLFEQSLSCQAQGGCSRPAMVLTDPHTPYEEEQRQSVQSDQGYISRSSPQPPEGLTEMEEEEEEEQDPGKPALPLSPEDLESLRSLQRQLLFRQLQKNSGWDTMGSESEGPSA
UniProt Q13478: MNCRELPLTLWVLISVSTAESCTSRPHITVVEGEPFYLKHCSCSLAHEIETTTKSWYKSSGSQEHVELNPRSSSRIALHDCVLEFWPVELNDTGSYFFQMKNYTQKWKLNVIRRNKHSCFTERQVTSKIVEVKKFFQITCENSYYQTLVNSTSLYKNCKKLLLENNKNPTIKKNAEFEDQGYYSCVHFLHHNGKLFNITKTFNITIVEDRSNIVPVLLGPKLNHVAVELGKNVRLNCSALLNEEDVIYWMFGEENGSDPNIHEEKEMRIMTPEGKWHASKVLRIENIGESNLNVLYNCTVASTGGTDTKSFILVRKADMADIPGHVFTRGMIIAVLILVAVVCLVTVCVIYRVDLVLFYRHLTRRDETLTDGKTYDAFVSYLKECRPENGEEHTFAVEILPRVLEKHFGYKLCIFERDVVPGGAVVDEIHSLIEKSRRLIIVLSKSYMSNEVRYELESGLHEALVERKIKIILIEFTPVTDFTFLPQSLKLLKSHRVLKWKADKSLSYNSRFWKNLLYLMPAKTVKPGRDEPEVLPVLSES
UniProt P51617, whole entry, looked up: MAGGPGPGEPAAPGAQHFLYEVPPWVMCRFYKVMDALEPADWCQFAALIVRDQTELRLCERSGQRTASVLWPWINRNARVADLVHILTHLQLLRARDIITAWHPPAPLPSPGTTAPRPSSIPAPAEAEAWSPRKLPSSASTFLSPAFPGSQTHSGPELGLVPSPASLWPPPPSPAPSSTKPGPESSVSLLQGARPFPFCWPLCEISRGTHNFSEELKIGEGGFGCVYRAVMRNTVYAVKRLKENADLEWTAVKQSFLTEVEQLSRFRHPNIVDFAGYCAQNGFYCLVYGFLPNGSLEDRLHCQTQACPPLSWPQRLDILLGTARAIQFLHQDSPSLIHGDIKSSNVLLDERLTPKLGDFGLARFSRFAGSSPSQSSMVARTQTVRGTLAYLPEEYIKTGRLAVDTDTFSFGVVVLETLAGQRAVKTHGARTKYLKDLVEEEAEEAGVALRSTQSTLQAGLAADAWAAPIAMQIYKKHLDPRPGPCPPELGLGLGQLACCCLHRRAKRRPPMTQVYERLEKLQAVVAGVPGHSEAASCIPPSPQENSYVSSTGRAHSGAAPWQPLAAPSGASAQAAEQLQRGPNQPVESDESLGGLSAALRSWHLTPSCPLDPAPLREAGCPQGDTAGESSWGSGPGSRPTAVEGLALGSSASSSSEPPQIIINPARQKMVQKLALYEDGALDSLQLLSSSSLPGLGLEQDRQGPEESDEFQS
UniProt P58166: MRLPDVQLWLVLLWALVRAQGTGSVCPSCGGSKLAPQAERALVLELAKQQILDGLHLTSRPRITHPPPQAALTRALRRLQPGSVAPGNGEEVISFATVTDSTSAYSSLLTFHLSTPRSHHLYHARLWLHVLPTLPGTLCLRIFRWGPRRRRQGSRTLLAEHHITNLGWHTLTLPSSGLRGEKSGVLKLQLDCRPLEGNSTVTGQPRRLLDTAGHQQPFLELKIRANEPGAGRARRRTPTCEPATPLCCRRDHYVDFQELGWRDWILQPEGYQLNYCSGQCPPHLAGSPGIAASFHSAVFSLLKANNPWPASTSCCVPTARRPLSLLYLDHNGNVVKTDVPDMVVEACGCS
UniProt P0DMQ5: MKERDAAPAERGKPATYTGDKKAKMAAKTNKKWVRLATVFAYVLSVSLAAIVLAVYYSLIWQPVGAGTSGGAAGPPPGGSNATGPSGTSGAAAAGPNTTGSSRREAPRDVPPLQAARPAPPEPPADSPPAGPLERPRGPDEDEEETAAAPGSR
UniProt Q9H2S9: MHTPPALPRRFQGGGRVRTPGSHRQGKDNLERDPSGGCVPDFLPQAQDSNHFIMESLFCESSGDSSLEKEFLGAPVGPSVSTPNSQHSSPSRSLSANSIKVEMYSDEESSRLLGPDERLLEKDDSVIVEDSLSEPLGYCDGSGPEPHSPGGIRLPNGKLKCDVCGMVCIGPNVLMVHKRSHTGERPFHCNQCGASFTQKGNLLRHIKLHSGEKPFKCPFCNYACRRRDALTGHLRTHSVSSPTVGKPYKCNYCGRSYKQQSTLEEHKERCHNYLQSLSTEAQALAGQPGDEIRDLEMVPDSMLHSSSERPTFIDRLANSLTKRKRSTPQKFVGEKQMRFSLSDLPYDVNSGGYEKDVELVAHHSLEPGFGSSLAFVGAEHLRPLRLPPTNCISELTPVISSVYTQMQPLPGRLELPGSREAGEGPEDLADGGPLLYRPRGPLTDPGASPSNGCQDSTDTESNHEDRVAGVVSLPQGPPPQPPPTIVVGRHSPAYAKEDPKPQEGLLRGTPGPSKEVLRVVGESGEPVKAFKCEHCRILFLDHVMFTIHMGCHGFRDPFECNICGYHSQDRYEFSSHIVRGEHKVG
UniProt Q9NQX7: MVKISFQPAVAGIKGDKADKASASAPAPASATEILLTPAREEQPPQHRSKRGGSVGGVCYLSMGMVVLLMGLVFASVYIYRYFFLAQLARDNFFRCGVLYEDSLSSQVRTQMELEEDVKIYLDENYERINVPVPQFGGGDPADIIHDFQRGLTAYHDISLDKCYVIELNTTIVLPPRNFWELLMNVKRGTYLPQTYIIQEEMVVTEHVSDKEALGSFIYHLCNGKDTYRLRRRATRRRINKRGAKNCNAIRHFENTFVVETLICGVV
UniProt P17936, whole entry, looked up: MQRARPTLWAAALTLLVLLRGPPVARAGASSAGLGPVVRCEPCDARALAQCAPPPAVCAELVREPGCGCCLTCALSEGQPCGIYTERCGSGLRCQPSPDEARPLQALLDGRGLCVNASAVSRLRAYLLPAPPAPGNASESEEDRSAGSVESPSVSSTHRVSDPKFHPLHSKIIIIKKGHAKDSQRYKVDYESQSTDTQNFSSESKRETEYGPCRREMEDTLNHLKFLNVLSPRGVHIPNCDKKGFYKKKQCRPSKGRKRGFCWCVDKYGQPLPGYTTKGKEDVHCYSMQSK

Assays:
Experiment in all cases: log2 fold change, soluble protein after heating vs DMSO (PISA); higher = thermal stabilisation; K562 cells, 10 uM, 30 min; active = over 0.2 and 3.5 SD of the protein, either way, in both replicates (recomputed)
[1] = compound: CC1=C(C=C(C=C1)NC(=O)C2=CC(=CC=C2)C(C)(C)C#N)NC3=CC4=C(C=C3)N=CN(C4=O)C
How it was run: (§1)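 K562 cells at 2×10^6 cells/mL were exposed to 10 μM compound for 30 min, then aliquots were heated for 3 min across 48°C-58°C, pooled, and extracted in PBS containing 0.5% NP-40 at 4°C. The supernatant after 21,000xg for 90 min was taken as soluble protein and measured by TMTpro 16plex LC-MS/MS with channel sums equalised. Thermal stability is reported relative to control samples, with values from duplicates. Fold changes are given on a log2 scale.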

[2] = compound: CC1=C(C=C(C=C1)NC(=O)C2=CC(=CC=C2)N(C)C)NC(=O)C3=CC=C(C=C3)O
How it was run: as §1

[3] = compound: CC1=CC=C(C=C1)SC2=C3C=C(SC3=CN=C2)C(=O)N
How it was run: as §1

[4] = compound: CCCS(=O)(=O)Nc1ccc(F)c(C(=O)c2c[nH]c3ncc(Cl)cc23)c1F
How it was run: as §1

[5] = compound: CCCc1cc(C)[nH]c(=O)c1CNC(=O)c1cc(-c2ccnc(N3CCN(C)CC3)c2)cc2c1cnn2C(C)C
How it was run: as §1

givinostat = compound: CCN(CC)Cc1ccc2cc(COC(=O)Nc3ccc(C(=O)NO)cc3)ccc2c1 [givinostat]
How it was run: as §1

barasertib = compound: CCN(CCCOc1ccc2c(Nc3cc(CC(=O)Nc4cccc(F)c4)[nH]n3)ncnc2c1)CCOP(=O)(O)O [barasertib]
How it was run: as §1

[6] = compound: CC[C@@H]1C(=O)N(C)c2cnc(Nc3ccc(C(=O)NC4CCN(C)CC4)cc3OC)nc2N1C1CCCC1
How it was run: as §1

volasertib = compound: CC[C@@H]1C(=O)N(C)c2cnc(Nc3ccc(C(=O)N[C@H]4CC[C@H](N5CCN(CC6CC6)CC5)CC4)cc3OC)nc2N1C(C)C [volasertib]
How it was run: as §1

[7] = compound: CCn1c(C(=O)N(C2CC2)C2CC2)cc2c3c(ncn3C)c(Nc3cc(C)n(C)n3)nc21
How it was run: as §1

rosiglitazone = compound: CN(CCOC1=CC=C(C=C1)C[C@H]2C(=O)NC(=O)S2)C3=CC=CC=N3 (racemic) [rosiglitazone]
How it was run: as §1

[8] = compound: CN1C2=C(C3=C1C(=O)N(N=C3)CC4=CC(=CC=C4)N)SC(=C2)S(=O)C
How it was run: as §1

Nexturastat A = compound: CCCCN(Cc1ccc(C(=O)NO)cc1)C(=O)Nc1ccccc1 [Nexturastat A]
How it was run: as §1

vemurafenib = compound: CCCS(=O)(=O)Nc1ccc(F)c(C(=O)c2c[nH]c3ncc(-c4ccc(Cl)cc4)cc23)c1F [vemurafenib]
How it was run: as §1

[9] = compound: CC[C@H](C)N1C=C(C2=C(C=C(C=C21)C3=CN=C(C=C3)N4CCNCC4)C(=O)NCC5=C(C=C(NC5=O)C)C)C
How it was run: as §1

epoxomicin = compound: CC[C@H](C)[C@@H](C(=O)N[C@@H]([C@@H](C)O)C(=O)N[C@@H](CC(C)C)C(=O)[C@]1(CO1)C)NC(=O)[C@H]([C@@H](C)CC)N(C)C(=O)C [epoxomicin]
How it was run: as §1

[10] = compound: CCn1cc(-c2ccnc3[nH]c(-c4cccc(CN(C)C)c4)cc23)c(-c2ccc(NC(=O)N(C)C)cc2)n1
How it was run: as §1

[11] = compound: CN(C)CC(=O)Nc1ccc2[nH]c(=O)c3ccccc3c2c1
How it was run: as §1

[12] = compound: CN1CCC(CNc2ccc3ncc(-c4cccc(OC(F)(F)F)c4)n3n2)CC1
How it was run: as §1

[13] = compound: CC1=NC(=CC=C1)C2=C(N=C(N2)C(C)(C)C)C3=CC4=NC=CN=C4C=C3
How it was run: as §1

Measured: log2 fold change

IRF2BP1 (UniProt Q8IU81)
inactive: [1] -0.073 | [2] 0.004 | [3] 0.066 | [4] -0.086 | [5] 0.184 | givinostat 0.032 | barasertib 0.102 | [6] -0.06 | volasertib 0.006 | [7] -0.025 | rosiglitazone -0.159 | [8] -0.016

IGHA1 (UniProt P01876)
inactive: [1] -0.134 | [2] 0.249 | [3] 0.524 | Nexturastat A -0.305 | vemurafenib -0.018 | [4] -0.124 | [5] -0.287 | givinostat 0.416 | barasertib 0.608 | [6] -0.111 | volasertib -0.459 | [9] 1.56 | epoxomicin 0.254 | [7] -0.275 | [10] 0.112 | [11] 0.014 | rosiglitazone 0.011 | [8] 1.04 | [12] 0.081

IRF2 (UniProt P14316)
inactive: [1] 0.001 | [2] -0.035 | [3] -0.024 | [13] 0.078 | vemurafenib -0.003 | [4] 0.169 | [5] -0.013 | givinostat -0.006 | barasertib 0.106 | volasertib -0.247 | [9] -0.05 | [7] -0.036 | [10] -0.027 | [11] 0.003 | rosiglitazone 0.031 | [12] -0.015

ILF3 (UniProt Q12906)
inactive: [1] 0.106 | [13] -0.177 | Nexturastat A 0.347 | [5] -0.232 | barasertib -0.241 | [6] 0.222 | [9] 0.144 | epoxomicin 0.004

ISCA1 isoform 2 (UniProt Q9BUE6)
inactive: [1] 0.03 | [3] 0.027 | [13] 0.094 | Nexturastat A 0.029 | vemurafenib 0.079 | [4] 0.055 | [5] -0.032 | givinostat -0.001 | barasertib 0.005 | [6] -0.007 | volasertib -0.037 | [9] 0.127 | epoxomicin -0.072 | [7] -0.027 | [10] -0.047 | [11] 0.045 | rosiglitazone 0.006 | [8] -0.089 | [12] 0

IL10RB (UniProt Q08334)
inactive: [1] 0.19 | [3] -0.012 | [13] -0.17 | Nexturastat A 0.082 | vemurafenib -0.004 | [4] 0.018 | givinostat 0.088 | barasertib 0.063 | [6] 0.045 | volasertib -0.086 | [9] 0.05 | epoxomicin 0.056 | [10] -0.247 | [11] -0.018 | [8] 0.007 | [12] 0.084

IL17RA (UniProt Q96F46)
inactive: [1] 0.299 | [5] 0.042

Retrieved one by one from the entries so far, two records:
IL17RA (UniProt Q96F46)
inactive: [1] 0.299 | [5] 0.042

IRF2 (UniProt P14316)
inactive: [1] 0.001 | [2] -0.035 | [3] -0.024 | [13] 0.078 | vemurafenib -0.003 | [4] 0.169 | [5] -0.013 | givinostat -0.006 | barasertib 0.106 | volasertib -0.247 | [9] -0.05 | [7] -0.036 | [10] -0.027 | [11] 0.003 | rosiglitazone 0.031 | [12] -0.015

Additional entries follow:

IL18R1 (UniProt Q13478)
inactive: [1] 0.232 | [3] -0.105 | [13] -0.067 | [4] -0.038 | [5] 0.071 | givinostat -0.072 | barasertib 0.136 | volasertib 0.142 | [9] 0.014 | [7] -0.236 | [10] -0.014 | rosiglitazone 0.189 | [8] 0.032 | [12] -0.001

IRAK1 (UniProt P51617)
inactive: [1] -0.16 | [2] 0.024 | [13] -0.098 | Nexturastat A 0.248 | [5] 0.035 | givinostat 0.217 | barasertib 0.319 | [6] -0.265 | [9] -0.016 | epoxomicin 0.073 | [7] -0.138 | [10] -0.006 | rosiglitazone -0.078 | [12] -0.108

INHBE (UniProt P58166)
inactive: [1] -0.065 | vemurafenib 0.039 | [5] 0.144 | givinostat 0.094 | barasertib -0.024 | [6] 0.052 | [7] 0.023 | [11] -0.021 | rosiglitazone -0.158

INAFM2 (UniProt P0DMQ5)
inactive: [1] 0.037 | [2] -0.042 | [3] 0.105 | [13] -0.249 | Nexturastat A 0.229 | [4] -0.026 | [5] 0.067 | givinostat 0.02 | barasertib -0.092 | [6] -0.04 | volasertib 0.077 | [9] -0.088 | epoxomicin -0.038 | [7] 0.024 | rosiglitazone -0.037

IKZF4 (UniProt Q9H2S9)
inactive: [1] -0.02 | [2] -0.179 | [3] 0.016 | Nexturastat A 0.302 | vemurafenib 0.042 | [4] 0.106 | givinostat 0.009 | barasertib -0.207 | volasertib -0.127 | [9] 0.035 | epoxomicin 0.103 | [7] 0.007 | [10] -0.03 | [11] -0.167 | rosiglitazone 0.114 | [8] -0.096 | [12] -0.109

INTS8 (UniProt Q75QN2)
inactive: [1] 0.11 | [2] 0.004 | [3] 0.047 | [13] -0.041 | vemurafenib 0.102 | [4] 0.037 | givinostat 0.058 | barasertib -0.034 | [6] 0.258 | volasertib -0.055 | [9] -0.025 | [7] 0.016 | [10] -0.062 | [11] -0.024 | rosiglitazone -0.228 | [8] -0.041 | [12] 0.017

ITM2C (UniProt Q9NQX7)
inactive: [1] 0.096 | [2] 0.004 | [3] 0.187 | Nexturastat A 0.084 | vemurafenib 0.006 | [4] -0.014 | givinostat 0.09 | barasertib 0.057 | volasertib -0.312 | [9] 0.049 | epoxomicin -0.149 | [10] -0.104 | [11] -0.046 | [8] 0.125 | [12] 0.218

IGFBP3 isoform 2 (UniProt P17936)
inactive: [1] -0.187 | [3] 0.1 | [13] 0.205 | Nexturastat A 0.204 | vemurafenib 0.031 | [4] 0.076 | volasertib -0.507 | epoxomicin -0.251 | [10] 0.075 | [11] -0.238 | [8] 0.199 | [12] -0.555

IGHG1 (UniProt P01857)
inactive: [1] 0.043 | vemurafenib 0.444 | [5] -0.001 | givinostat 0.397 | barasertib 0.233 | [6] 0.16 | [9] 0.474 | [7] 0.042 | [11] 0.08 | rosiglitazone 0 | [8] 0.579
